Data from patent US4933323 (dated 1990).
Strings that start with PEPTIDE1 are HELM notation: dots part the residues, brackets hold end groups and non-standard residues.

Assay: general procedure: Boc solid-phase peptide synthesis; Boc-Lys[Z(2Cl)]-chloromethyl resin, 0.33 mmol/g
Conditions: whole synthesis
[1] = scale of the general procedure 1.50 g resin

In the case of PEPTIDE1{D.S.D.G.K}$$$$V2.0, the crude mass is reported as 360 mg, the isolated mass is reported as 46.8 mg and the “final purity (method not given)” value [1] is reported as 97%. It also gave an isolated yield [1] of 13%.
